Measurements reported in patent publication US4305940A, “Benzamides with local anaesthetic and antiarrhythmic activity, salts, and method of preparation thereof and pharmaceutical compositions therefrom” (B.B.R. Boehringer Biochemia Robin S.p.A., priority 1979, dated 1981).

Assay: in vivo
Conditions: rat, ip, 5 days, hydrochloride salts, range in parentheses, read-out: DL50 i.p.
Source text: Acute toxicity has been determined in Swiss rats by the intraperitoneal injection of the compounds dissolved in physiological saline solution. The behavior of the animals has then been followed for a period of five days. The DL50 has been determined according to the method of I. T. Litchfield and F. Wilcoxon, (J. Pharmacol. Exper. Ther., 96, 99, 1949). The compound numbers in Table II correspond to the numbers in Table I.

SMILES: CCN(CC)CC(=O)Nc1c(C)cccc1C [Lidocaine, α-diethylamino-2,6-dimethyl-acetanilide, reference compound]
- LD50 at 120 h: 142 mg/kg
